Test results from US20020102248A1.
These are yes or no findings as the source states them, for the method shown. Binding seen in cells or lysates may run through a third protein. Some binding calls cover weakened binding; strength is not graded here.

By UniProt entry, the sequences of proteins in these tests, tags left out. Where a name states a change or a piece, a line headed by the entry shows the natural chain unless it says otherwise. Chains listed by the source or under a name are the forms on record and can include a tag or linker.
UniProt P03372: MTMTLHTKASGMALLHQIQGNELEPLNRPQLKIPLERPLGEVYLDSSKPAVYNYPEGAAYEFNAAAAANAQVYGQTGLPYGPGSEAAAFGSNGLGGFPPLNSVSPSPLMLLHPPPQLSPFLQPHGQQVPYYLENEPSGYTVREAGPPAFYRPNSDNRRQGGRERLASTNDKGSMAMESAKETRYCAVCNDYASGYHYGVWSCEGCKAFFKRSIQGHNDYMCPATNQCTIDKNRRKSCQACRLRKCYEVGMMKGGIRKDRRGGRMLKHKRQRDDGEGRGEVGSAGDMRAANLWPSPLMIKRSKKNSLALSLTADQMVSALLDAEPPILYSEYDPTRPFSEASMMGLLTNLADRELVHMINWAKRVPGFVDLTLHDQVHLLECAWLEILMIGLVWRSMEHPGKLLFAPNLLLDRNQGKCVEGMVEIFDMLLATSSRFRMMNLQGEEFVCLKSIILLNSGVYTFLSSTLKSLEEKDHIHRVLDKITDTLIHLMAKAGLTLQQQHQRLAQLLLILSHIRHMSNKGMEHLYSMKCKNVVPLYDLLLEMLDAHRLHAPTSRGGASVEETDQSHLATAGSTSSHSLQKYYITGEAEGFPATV
UniProt Q92831: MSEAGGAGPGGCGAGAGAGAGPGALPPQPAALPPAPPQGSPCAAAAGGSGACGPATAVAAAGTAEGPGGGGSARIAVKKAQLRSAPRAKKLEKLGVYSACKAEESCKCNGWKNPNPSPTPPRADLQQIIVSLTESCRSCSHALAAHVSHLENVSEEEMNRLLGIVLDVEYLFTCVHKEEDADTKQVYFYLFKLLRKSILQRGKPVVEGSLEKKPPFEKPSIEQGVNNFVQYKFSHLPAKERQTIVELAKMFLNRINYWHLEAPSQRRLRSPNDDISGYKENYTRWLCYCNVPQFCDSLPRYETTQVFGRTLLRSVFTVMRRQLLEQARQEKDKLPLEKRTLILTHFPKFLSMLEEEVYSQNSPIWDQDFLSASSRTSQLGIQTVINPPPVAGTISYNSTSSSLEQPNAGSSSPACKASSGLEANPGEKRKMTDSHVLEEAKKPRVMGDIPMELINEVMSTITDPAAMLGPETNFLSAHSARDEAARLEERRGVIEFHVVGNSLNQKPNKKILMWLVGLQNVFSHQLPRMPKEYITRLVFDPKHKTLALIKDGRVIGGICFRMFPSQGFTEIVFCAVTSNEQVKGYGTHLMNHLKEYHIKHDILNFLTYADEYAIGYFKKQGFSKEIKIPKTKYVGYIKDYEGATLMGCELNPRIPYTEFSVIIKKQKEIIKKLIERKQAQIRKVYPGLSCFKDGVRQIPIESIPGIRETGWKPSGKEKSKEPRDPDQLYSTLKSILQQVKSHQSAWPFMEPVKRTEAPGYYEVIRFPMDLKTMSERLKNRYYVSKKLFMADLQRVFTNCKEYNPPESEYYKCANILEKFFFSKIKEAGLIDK
UniProt O96017: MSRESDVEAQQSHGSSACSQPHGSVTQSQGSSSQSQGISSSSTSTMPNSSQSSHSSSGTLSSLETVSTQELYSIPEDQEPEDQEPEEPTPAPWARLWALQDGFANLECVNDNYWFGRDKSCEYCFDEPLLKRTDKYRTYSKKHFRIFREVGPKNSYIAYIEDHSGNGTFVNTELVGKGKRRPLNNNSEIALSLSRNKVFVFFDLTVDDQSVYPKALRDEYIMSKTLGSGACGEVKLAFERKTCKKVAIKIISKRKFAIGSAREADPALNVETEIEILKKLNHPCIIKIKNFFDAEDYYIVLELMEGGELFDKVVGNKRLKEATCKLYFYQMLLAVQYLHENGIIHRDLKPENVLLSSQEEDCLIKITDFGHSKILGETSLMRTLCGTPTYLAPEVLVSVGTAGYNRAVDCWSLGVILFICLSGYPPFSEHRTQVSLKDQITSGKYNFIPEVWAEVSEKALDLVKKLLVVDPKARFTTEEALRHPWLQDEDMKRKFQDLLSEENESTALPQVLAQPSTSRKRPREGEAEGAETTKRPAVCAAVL
kinase-dead hCds1 mutant fused to V5 (O96017, form named): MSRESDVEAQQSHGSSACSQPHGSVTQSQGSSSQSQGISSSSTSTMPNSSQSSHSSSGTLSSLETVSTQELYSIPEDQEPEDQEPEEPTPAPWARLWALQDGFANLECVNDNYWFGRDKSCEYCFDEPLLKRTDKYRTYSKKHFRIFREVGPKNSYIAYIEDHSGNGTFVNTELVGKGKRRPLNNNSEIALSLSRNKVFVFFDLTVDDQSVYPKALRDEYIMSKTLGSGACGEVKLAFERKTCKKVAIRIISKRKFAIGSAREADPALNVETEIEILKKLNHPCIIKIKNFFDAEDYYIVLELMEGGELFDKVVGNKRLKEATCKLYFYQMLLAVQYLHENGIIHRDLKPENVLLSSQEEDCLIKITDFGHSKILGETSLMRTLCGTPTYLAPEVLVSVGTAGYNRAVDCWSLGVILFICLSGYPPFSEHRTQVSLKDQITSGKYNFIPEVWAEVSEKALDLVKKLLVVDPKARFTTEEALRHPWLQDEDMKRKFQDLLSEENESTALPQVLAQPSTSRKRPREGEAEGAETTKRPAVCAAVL

Columns and labels:
ERa [1] = molecular target: ERa (UniProt P03372); assay: co-immunoprecipitation from unirradiated COS-7 cells also expressing wild type HA-BRCA1
ERa [2] = molecular target: ERa (UniProt P03372); assay: co-immunoprecipitation of ERa and FLAG-PCAF from COS-7 cells also expressing HA-BRCA1 S988E
ERa [3] = molecular target: ERa (UniProt P03372); assay: co-immunoprecipitation from irradiated (15 Gy) COS-7 cells also expressing wild type HA-BRCA1
ERa [4] = molecular target: ERa (UniProt P03372); assay: co-immunoprecipitation of ERa and FLAG-PCAF from COS-7 cells also expressing HA-BRCA1 [S988A], irradiated or not
HA-BRCA1 [S988A] (human) [5] = molecular target: HA-BRCA1 [S988A] (human) (UniProt P38398); assay: co-immunoprecipitation with anti-HA from unirradiated MCF-7 cells
HA-BRCA1 [S988A] (human) [6] = molecular target: HA-BRCA1 [S988A] (human) (UniProt P38398); assay: co-immunoprecipitation with anti-HA from irradiated (10 Gy) MCF-7 cells
[7] = molecular target: BRCA1 fused to the epitope tag myc (human) (UniProt P38398); assay: co-immunoprecipitation from irradiated MCF-7 cells
[8] = molecular target: BRCA1 fused to the epitope tag myc (human) (UniProt P38398); assay: co-immunoprecipitation from unirradiated MCF-7 cells
HA-BRCA1 [S988A] (human) [9] = molecular target: HA-BRCA1 [S988A] (human) (UniProt P38398); assay: co-immunoprecipitation from unirradiated and irradiated MCF-7 cells
HA-BRCA1 [S988E] (human) = HA-BRCA1 [S988E] (human) (UniProt P38398); assay: as above

Measured: binding

PCAF linked to the epitope tag FLAG (from UniProt Q92831 1-832) (enzyme)
binds: ERa [1] | ERa [2] | ERa [3] | ERa [4]

hCds1 fused to the epitope tag V5 (from UniProt O96017 1-543) (enzyme)
binds: HA-BRCA1 [S988A] (human) [5] | HA-BRCA1 [S988A] (human) [6]

kinase-dead hCds1 mutant fused to V5 (from UniProt O96017 1-543) (enzyme)
binds: [7] | [8] | HA-BRCA1 [S988A] (human) [9] | HA-BRCA1 [S988E] (human)
